Data from PubChem BioAssay AID1347076 (National Center for Advancing Translational Sciences (NCATS), 2019).
Where “and” joins values, the source holds several entries; their conditions need not be identical. Equal entries are not always repeated. The whole screen tested about 400,000 compounds, of which about 13,000 (3.2%) were called active. The inconclusive results got no clear call from the source; some entries with a clear call stand among them for comparison. The call rests on the fitted dose curve; in most records, active means well fitted cell-killing curve with a large enough effect; inconclusive means small, poorly fitted or top-dose-only effect, or effect the other way; inactive means flat fitted curve, though single readings scatter. Potencies of inconclusive entries are doubtful fits and often do not repeat.

test: qHTS assay for MDR1-selective chemotherapeutics: Primary screen using the drug-selected MDR subline cells KB-V1; settings: KB-V1 MDR cells viability, CellTiter-Glo, 72 h; series mostly up to 46.1 µM; further: nearly all actives have a fitted effect of over 60% in size
Method in brief: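 Following 72 h at 37 degrees C with compound, KB-V1 cell viability was read by CellTiter-Glo luminescence, medium being phenol-red-free DMEM plus 10% FBS; concentration-response parameters came from normalized, curve-fitted qHTS data.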
Potency means the concentration at half of the fitted maximal effect.

Row | Structure (SMILES) | Potency
1 | CCOC(=O)C1CCN(S(=O)(=O)c2ccc3c(c2)NC(=O)C(C)S3)CC1 (stereo unspecified) | inconclusive: 29.1 µM [cytotoxic, single point]
2 | Cc1cc(N2CCN(c3nc(-c4ccc([N+](=O)[O-])cc4)cs3)CC2)c2ccccc2n1 | inconclusive: 2.31 µM [cytotoxic, full curve]
3 | NC1=NC(=O)S/C1=C\c1ccc(O)cc1 | inconclusive: 29.1 µM [cytotoxic, single point]
4 | C/C(Cn1nnc([N+](=O)[O-])n1)=N\NC(=O)c1cccc(Cl)c1 | inactive
5 | CCn1c(SCC(=O)Nc2nc(-c3ccc(C)cc3)cs2)nnc1-c1ccccc1O | inactive
6 | N#Cc1c2n(c3c(=O)n(CC(=O)c4ccc([N+](=O)[O-])cc4)cnc13)CCCCC2 | inconclusive: 9.2 µM [cytotoxic, partial curve]
7 | CC(=O)C1=CCC(c2ccccc2F)N(S(=O)(=O)c2ccc(C)cc2)C1 (stereo unspecified) | inactive
8 | Cc1nnnn1/C(=C\c1ccccc1)C(=O)OCC(=O)N1CC2(C)CC1CC(C)(C)C2 (stereo unspecified) | inconclusive: 29.1 µM [cytotoxic, single point]
9 | O=C(NCc1ccccc1)C(c1ccccc1)N(C(=O)c1csnn1)c1ccccc1 (stereo unspecified) | inconclusive: 14.6 µM [cytotoxic, partial curve]
10 | O=C(COc1ccccc1Cl)N1CCN(C(=O)c2ccco2)CC1 | inconclusive: 20.6 µM [cytotoxic, partial curve, poor fit]
11 | COc1ccc(C)cc1S(=O)(=O)N1c2ccccc2CC1C (stereo unspecified) | inconclusive: 25.9 µM [cytotoxic, partial curve, poor fit]
12 | CN(C)CCNC(=O)Cn1nc(N2CCN(c3ccccc3)CC2)ccc1=O | inactive
13 | CC1(C)C(=O)Nc2ccccc2N1C(=O)COC(=O)Cc1ccccc1F | inactive
14 | Cc1ccc(-n2nnnc2SCc2nnc(-c3ccccc3Br)o2)cc1 | active: 16.4 µM
15 | O=C(CN1CCN(CC(=O)c2ccc(Cl)cc2)CC1)c1ccc(Cl)cc1 | inconclusive: 14.6 µM [rising, partial curve, poor fit]
16 | Cc1cccn2c(=O)c(C(=O)NC3CC(C)CC(C)(C)C3)c(O)nc12 (stereo unspecified) | active: 23.1 µM
17 | CCOC(=O)C1CCN(c2c(NCCCN3CCN(Cc4ccccc4)CC3)c(=O)c2=O)CC1 | inactive
18 | COc1cc(/C=C2\C(=O)ON=C2c2ccc(Cl)cc2)ccc1O | inconclusive: 32.6 µM [cytotoxic, single point]
19 | Cc1ccc(-n2c(SCC(=O)O)nc3c(sc(=S)n3-c3ccc(C)c(C)c3)c2=O)cc1 | inconclusive: 32.6 µM [rising, single point]
20 | Cc1ccc(C)c(S(=O)(=O)c2nnn3c2nc(N2CCCCC2)c2sccc23)c1 | inconclusive: 16.4 µM [cytotoxic, single point]
21 | CCCCc1nc2cc(C(=O)NCCc3cnn(C)c3)ccc2o1 | inconclusive: 6.51 µM [cytotoxic, partial curve]
22 | CC(C)C(C)N(Cc1ccc(C(=O)O)cc1)C(=O)c1ccc2ccccc2n1 (stereo unspecified) | inconclusive: 29.1 µM [rising, single point]
23 | COc1ccccc1-c1nnc(SC(C)C(=O)Nc2ccc(C(N)=O)cc2)o1 (stereo unspecified) | inactive
24 | CCc1ccc(CN/C=C/C(=O)c2ccc(Br)cc2)cc1 | inactive

Row | Structure (SMILES) | Potency
25 | CC(C)(C)OC(=O)N1CCC(c2c(C(=O)N3CCN(c4ncccn4)CC3)cnn2-c2cccc(F)c2)CC1 | inconclusive: 29.1 µM [rising, single point]
26 | COc1ccc(C(C)(O)c2nc(-c3ccccc3C)cs2)cc1 (stereo unspecified) | active: 5.17 µM
27 | CCOC(=O)/C(C#N)=C/Nc1cc(C(=O)OCC)cc2c(OC)c(OC)ccc12 | inactive
28 | c1cc(C2CCN(Cc3nc(-c4ccc5c(c4)OCO5)no3)CC2)ccn1 | inconclusive: 11.6 µM [cytotoxic, partial curve, poor fit]
29 | COCCn1cnc2c1c(=O)[nH]c(=O)n2Cc1ccccc1 | inactive
30 | O=C(/C=C/c1ccc2ccccc2n1)N1CCN(S(=O)(=O)c2ccc(F)cc2)CC1 | inconclusive: 18.4 µM [cytotoxic, partial curve]
31 | NC(=O)CC(NC(=O)Cc1ccc(Br)cc1)c1ccc(NC2CCCCCCC2)c([N+](=O)[O-])c1 (stereo unspecified) | inactive
32 | CCn1cc(/C=C(\NC(=O)c2cc(OC)c(OC)c(OC)c2)C(=O)N2CCN(C)CC2)c2ccccc21 | inconclusive: 18.4 µM [rising, single point]
33 | O=C(O)[C@H](Cc1ccccc1)NC(=O)N1CCN(c2ccc(F)cc2)CC1 | inactive
34 | Cc1cccc(-c2c3c(=O)n(C)c(=O)n(C)c3c3cccnn23)c1 | inconclusive: 11.6 µM [cytotoxic, partial curve]
35 | COc1cc(/C=C2\C=CC(=O)O2)cc(OC)c1 | inactive
36 | OC(c1ccc2ccccc2c1)c1ncc(-c2ccc(C(F)(F)F)cc2)[nH]1 (stereo unspecified) | inconclusive: 18.4 µM [rising, single point]
37 | COc1ccc(NC(=O)c2ccc3c(c2)CCN3S(=O)(=O)c2ccccc2)cc1 | inactive
38 | COc1ccc(C=CC(=O)c2ccc3cc(OC)c(OC)cc3c2)cc1OC | inactive
39 | CCc1nc2c(cnn2-c2ccc(Cl)cc2)c(=O)n1-c1ccc(OC)cc1 | inactive
40 | O=C(NNS(=O)(=O)c1ccc(Cl)cc1)C1CCN(Cc2ccccc2)CC1 | inactive
41 | N#Cc1cnc(NOCc2ccc(Cl)cc2)nc1 | inactive
42 | N#CC(CCc1ccccc1[N+](=O)[O-])(CCc1ccccc1[N+](=O)[O-])C(N)=O | inactive
43 | c1ccc(Oc2cccc(OCCCCN3CCCC3)c2)cc1 | inactive
44 | Cc1cccc(C)c1NC(=O)N1CCC(c2nc3ccccc3o2)CC1 | active: 20.6 µM
45 | Cc1noc2ncnc(N3CCCC(C(=O)Nc4cccc(C(F)(F)F)c4)C3)c12 (stereo unspecified) | inconclusive: 6.51 µM [cytotoxic, partial curve, poor fit]
46 | CSc1ccc(/C=C/C(=O)Nc2ccccc2)cc1 | inactive
47 | O=C(CNc1cccc2ccccc12)N/N=C/c1ccccn1 | inconclusive: 20.6 µM [cytotoxic, partial curve]
48 | O=C(CSc1nnc(-c2ccccc2)c(-c2ccccc2)n1)NCc1ccco1 | active: 16.4 µM

Row | Structure (SMILES) | Potency
49 | CCOc1cc(N2CCOCC2)c(OCC)cc1NC(=O)CN1CCCC(C)C1 (stereo unspecified) | inconclusive: 9.2 µM [cytotoxic, partial curve, poor fit]
50 | CCN(CC(=O)Nc1c(F)cccc1F)C(=O)c1cc(C)nc2ccccc12 | inactive
51 | COc1ccc(-c2nc(S(=O)(=O)c3ccc(C)cc3)c(NCc3ccccc3)o2)cc1 | inactive
52 | CCCN(CC1CC1)c1nc(N)c(C#N)c(CC#N)c1C#N | inconclusive: 29.1 µM [cytotoxic, partial curve, poor fit]
53 | COc1ccc(OC)c(S(=O)(=O)Nc2cnc3ccccc3c2)c1 | inconclusive: 23.1 µM [cytotoxic, single point]
54 | Clc1ccc(-n2nnnc2-c2cnc(-c3ccncc3)nc2-c2cccs2)cc1 | inconclusive: 25.9 µM [cytotoxic, single point]
55 | COc1ccc(C(=O)NC(=S)NCc2ccccc2)cc1 | inconclusive: 29.1 µM [cytotoxic, single point]
56 | O=C(NC1CCCC1)C(c1ccncc1)N(Cc1ccccc1)C(=O)Cc1cccs1 (stereo unspecified) | inconclusive: 8.2 µM [cytotoxic, partial curve]
57 | CCOc1ccc(/C=N/OCC(=O)Nc2cc(S(=O)(=O)N3CCOCC3)ccc2OC)cc1 | inactive
58 | Cc1cc(SCC(=O)c2ccccc2)nc(=O)[nH]1 | inconclusive: 29.1 µM [rising, single point]
59 | CCCCOc1ccc(CSC2=NCCN2)cc1[N+](=O)[O-] | inconclusive: 23.1 µM [cytotoxic, partial curve, poor fit]
60 | C=CCn1c(SCC(=O)/C(C#N)=C(\C)N)nc2sc(CC)cc2c1=O | inconclusive: 20.6 µM [cytotoxic, single point] and inconclusive: 9.2 µM [cytotoxic, partial curve, poor fit]
61 | O=S(=O)(c1cccc(Cl)c1)N1CCN(c2nc(-c3cccs3)nc3ccccc23)CC1 | inactive
62 | Cc1ccc(S(=O)(=O)Nc2ccc3c(c2)nc(CCN2CCOCC2)n3C)cc1 | inactive
63 | c1ccc(-c2nc(-c3ccccn3)no2)cc1 | active: 16.4 µM
64 | CCOc1cc(/C=N/NC(=O)NN(C)c2ncc(C(F)(F)F)cc2Cl)ccc1O | inconclusive: 0.0073 µM [cytotoxic, full curve, poor fit]
65 | CCOC(=O)c1sc(NS(=O)(=O)c2ccc(F)cc2)nc1C | inconclusive: 7.31 µM [rising, partial curve]
66 | O=C(OCc1nc2ccccc2s1)c1ccc(Br)o1 | inconclusive: 0.731 µM [rising, full curve, poor fit]
67 | CC1=NN(c2ccccc2)C(=O)/C1=C\c1ccc(Oc2ccc([N+](=O)[O-])cc2[N+](=O)[O-])cc1 | inactive
68 | COc1ccc2cc1Oc1ccc(cc1)C[C@H]1c3cc(c(OC)cc3CCN1C)Oc1c(O)c(OC)cc3c1[C@H](C2)N(C)CC3 | inconclusive: 23.1 µM [cytotoxic, single point]
69 | COc1ccccc1N1CCN(C(=O)C(Sc2ccccc2)c2ccccc2)CC1 (stereo unspecified) | inconclusive: 20.6 µM [cytotoxic, single point]
70 | CC(C)(C)Cn1c(=O)[nH]c(=O)c2cc([N+](=O)[O-])cnc21 | inconclusive: 29.1 µM [cytotoxic, single point]
71 | COc1cc(-c2nnc(COc3ccc4ccccc4c3)o2)cc(OC)c1OC | active: 23.1 µM

An excerpt of these results, with tabs.
Row	Structure (SMILES)	Potency
58	Cc1cc(SCC(=O)c2ccccc2)nc(=O)[nH]1	inconclusive: 29.1 µM [rising, single point]
59	CCCCOc1ccc(CSC2=NCCN2)cc1[N+](=O)[O-]	inconclusive: 23.1 µM [cytotoxic, partial curve, poor fit]
60	C=CCn1c(SCC(=O)/C(C#N)=C(\C)N)nc2sc(CC)cc2c1=O	inconclusive: 20.6 µM [cytotoxic, single point] and inconclusive: 9.2 µM [cytotoxic, partial curve, poor fit]
61	O=S(=O)(c1cccc(Cl)c1)N1CCN(c2nc(-c3cccs3)nc3ccccc23)CC1	inactive
62	Cc1ccc(S(=O)(=O)Nc2ccc3c(c2)nc(CCN2CCOCC2)n3C)cc1	inactive
63	c1ccc(-c2nc(-c3ccccn3)no2)cc1	active: 16.4 µM
